The record followed here is paper PMC11215065.

Experiment [1] has as its target T1, N-terminally HA-tagged ULBP1 (UniProt Q9BZM6).
T1 sequence: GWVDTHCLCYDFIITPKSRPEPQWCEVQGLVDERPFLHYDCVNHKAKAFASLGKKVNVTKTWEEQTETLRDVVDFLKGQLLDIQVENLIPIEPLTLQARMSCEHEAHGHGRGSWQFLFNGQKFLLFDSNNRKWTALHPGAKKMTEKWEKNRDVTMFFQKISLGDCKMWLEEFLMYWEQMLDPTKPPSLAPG
Description: co-IP; U373 cells co-expressing U20 and HA-ULBP1; 1% digitonin lysis buffer; IP with anti-U20 (MCW53) or anti-HA (HA.11); immunoblot. Background: Immunoblotting shows a protein as a band on a membrane.

The target of experiment [2] is T2, U20 expressed in U373 cells (HHV-6B) (UniProt Q9QJ46).
T2 sequence: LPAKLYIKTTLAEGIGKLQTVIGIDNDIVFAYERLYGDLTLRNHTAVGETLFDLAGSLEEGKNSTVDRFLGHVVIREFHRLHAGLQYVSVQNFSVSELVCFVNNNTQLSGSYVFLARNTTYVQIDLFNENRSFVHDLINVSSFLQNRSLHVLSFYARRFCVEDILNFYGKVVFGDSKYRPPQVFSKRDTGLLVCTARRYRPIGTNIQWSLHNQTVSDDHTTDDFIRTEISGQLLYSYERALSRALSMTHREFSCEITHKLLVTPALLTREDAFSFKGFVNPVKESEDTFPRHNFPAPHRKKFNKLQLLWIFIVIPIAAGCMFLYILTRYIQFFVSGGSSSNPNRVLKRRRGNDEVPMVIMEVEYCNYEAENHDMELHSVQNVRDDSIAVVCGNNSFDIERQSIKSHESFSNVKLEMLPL
The experiment is described as above.

No constants are given. Whether binding was seen depends on the method and setting. In cells and extracts the contact can be indirect. Some results given as binding are weak or reduced against the parent protein; the word gives no strength. Where a sequence is shown, tags or fusion partners need not be part of it.

B1: U20 expressed in U373 cells (protein, UniProt Q9QJ46 16-434)
chain: T2 sequence
Regarding B1, in experiment [1], the binding entry is reported as “binds”.

B2: N-terminally HA-tagged ULBP1 (protein, UniProt Q9BZM6 26-216)
chain: T1 sequence
In the case of B2, the binding result in experiment [2] is given as “binds”.
